# Values of other authors in patent publication US7060709B2, “Method of treating hepatic fibrosis” (Wyeth, priority 2003, dated 2006).
# At least one structure is not confirmed: it was looked up by name or label, or the drawing left a doubt.
# Assays:
# [1] = test system: experimental allergic encephalomyelitis; conditions: model for multiple sclerosis; cited from earlier work
# adjuvant arthritis = conditions: model for rheumatoid arthritis; cited from earlier work
# Candida albicans = conditions: particularly against Candida albicans, in vitro and in vivo; cited from earlier work
# IgE-like antibodies = conditions: in vivo; cited from earlier work
compound,measurement,setting,value
CO[C@H]1C[C@@H]2CC[C@@H](C)[C@@](O)(O2)C(=O)C(=O)N2CCCC[C@H]2C(=O)O[C@H]([C@H](C)C[C@@H]2CC[C@@H](O)[C@H](OC)C2)CC(=O)[C@H](C)/C=C(\C)[C@@H](O)[C@@H](OC)C(=O)[C@H](C)C[C@H](C)/C=C/C=C/C=C/1C [Rapamycin],efficacy in experimental allergic encephalomyelitis model,[1],effective
same,efficacy in adjuvant arthritis model,adjuvant arthritis,effective
same,antifungal activity,Candida albicans,antifungal activity
same,formation of IgE-like antibodies,IgE-like antibodies,effectively inhibited
